This is an account of results in paper PMC12499416, “ATF3 Deficiency Exacerbates Ageing‐Induced Atherosclerosis and Clinical Intervention Strategy” (Advanced Science, 2025).

No constants are given. Whether binding was seen depends on the method and setting. Binding seen in cells or lysates may run through a third protein. A result given as binding can be weak or reduced; the word gives no strength. For some assays here: Tags and fused reporters may be left off the sequences shown.

Assay [1] addresses activating transcription factor 3 (ATF3), endogenous in VSMCs (mouse (endogenous in VSMCs)). Briefly: co-IP; endogenous proteins from VSMC lysates; ATF3 antibody or ATG7 antibody, IgG as control; Western blot. On the technique in general: Immunoblotting shows a protein as a band on a membrane.
The next assay addresses GST-ATF3 fusion protein. Briefly: pull-down; GST-ATF3 fusion protein as bait, His-ATG7 from HEK-293T cells; only the target purified.

B1: autophagy-related 7 (ATG7), endogenous in VSMCs (protein, UniProt Q9D906 1-698)
chain: MGDPGLAKLQFAPFNSALDVGFWHELTQKKLNEYRLDEAPKDIKGYYYNGDSAGLPTRLTLEFSAFDMSASTPAHCCPAMGTLHNTNTLEAFKTADKKLLLEQSANEIWEAIKSGAALENPMLLNKFLLLTFADLKKYHFYYWFCCPALCLPESIPLIRGPVSLDQRLSPKQIQALEHAYDDLCRAEGVTALPYFLFKYDDDTVLVSLLKHYSDFFQGQRTKITVGVYDPCNLAQYPGWPLRNFLVLAAHRWSGSFQSVEVLCFRDRTMQGARDVTHSIIFEVKLPEMAFSPDCPKAVGWEKNQKGGMGPRMVNLSGCMDPKRLAESSVDLNLKLMCWRLVPTLDLDKVVSVKCLLLGAGTLGCNVARTLMGWGVRHVTFVDNAKISYSNPVRQPLYEFEDCLGGGKPKALAAAERLQKIFPGVNARGFNMSIPMPGHPVNFSDVTMEQARRDVEQLEQLIDNHDVIFLLMDTRESRWLPTVIAASKRKLVINAALGFDTFVVMRHGLKKPKQQGAGDLCPSHLVAPADLGSSLFANIPGYKLGCYFCNDVVAPGDSTRDRTLDQQCTVSRPGLAVIAGALAVELMVSVLQHPEGGYAIASSSDDRMNEPPTSLGLVPHQIRGFLSRFDNVLPVSLAFDKCTACSPKVLDQYEREGFTFLAKVFNSSHSFLEDLTGLTLLHQETQAAEIWDMSDEETV
As to B1, the binding entry in assay [1] was “binds”.

B2: His-ATG7 from HEK-293T cells (protein, UniProt Q9D906 1-698)
chain: B1 chain
Turning to B2, in the assay with GST-ATF3 fusion protein, the binding entry is listed as “binds”.
